Source: the supplement of paper PMC10849652
The other results are listed elsewhere or left out. Residues, ends and D or L forms follow the SMILES beside them. *: point of attachment. Cbz = O=C(OCc1ccccc1)*

Sequences of proteins named here, by UniProt entry; tags and fusion partners are left off. A change or cut given only in a name is not applied to a line headed by its entry.
UniProt Q9P013: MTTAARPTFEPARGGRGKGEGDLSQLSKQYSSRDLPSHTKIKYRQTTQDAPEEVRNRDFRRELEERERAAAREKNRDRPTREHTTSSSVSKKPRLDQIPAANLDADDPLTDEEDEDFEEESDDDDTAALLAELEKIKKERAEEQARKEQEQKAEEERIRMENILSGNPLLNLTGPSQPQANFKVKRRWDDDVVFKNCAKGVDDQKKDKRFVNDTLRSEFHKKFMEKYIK
UniProt P04080: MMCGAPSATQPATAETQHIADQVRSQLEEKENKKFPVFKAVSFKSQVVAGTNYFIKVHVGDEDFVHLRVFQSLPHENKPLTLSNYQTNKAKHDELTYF
UniProt Q13561, whole entry, looked up: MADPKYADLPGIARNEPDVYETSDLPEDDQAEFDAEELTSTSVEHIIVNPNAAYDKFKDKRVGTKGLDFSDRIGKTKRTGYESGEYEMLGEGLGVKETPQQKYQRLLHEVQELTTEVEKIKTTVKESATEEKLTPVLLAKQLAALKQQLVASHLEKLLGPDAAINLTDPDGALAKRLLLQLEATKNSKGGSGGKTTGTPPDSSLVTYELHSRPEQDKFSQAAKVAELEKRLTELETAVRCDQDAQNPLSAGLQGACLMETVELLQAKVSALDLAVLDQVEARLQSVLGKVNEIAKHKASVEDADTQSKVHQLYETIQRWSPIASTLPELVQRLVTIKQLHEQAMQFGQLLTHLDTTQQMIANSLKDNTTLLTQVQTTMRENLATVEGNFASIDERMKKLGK
UniProt Q13617, whole entry, looked up: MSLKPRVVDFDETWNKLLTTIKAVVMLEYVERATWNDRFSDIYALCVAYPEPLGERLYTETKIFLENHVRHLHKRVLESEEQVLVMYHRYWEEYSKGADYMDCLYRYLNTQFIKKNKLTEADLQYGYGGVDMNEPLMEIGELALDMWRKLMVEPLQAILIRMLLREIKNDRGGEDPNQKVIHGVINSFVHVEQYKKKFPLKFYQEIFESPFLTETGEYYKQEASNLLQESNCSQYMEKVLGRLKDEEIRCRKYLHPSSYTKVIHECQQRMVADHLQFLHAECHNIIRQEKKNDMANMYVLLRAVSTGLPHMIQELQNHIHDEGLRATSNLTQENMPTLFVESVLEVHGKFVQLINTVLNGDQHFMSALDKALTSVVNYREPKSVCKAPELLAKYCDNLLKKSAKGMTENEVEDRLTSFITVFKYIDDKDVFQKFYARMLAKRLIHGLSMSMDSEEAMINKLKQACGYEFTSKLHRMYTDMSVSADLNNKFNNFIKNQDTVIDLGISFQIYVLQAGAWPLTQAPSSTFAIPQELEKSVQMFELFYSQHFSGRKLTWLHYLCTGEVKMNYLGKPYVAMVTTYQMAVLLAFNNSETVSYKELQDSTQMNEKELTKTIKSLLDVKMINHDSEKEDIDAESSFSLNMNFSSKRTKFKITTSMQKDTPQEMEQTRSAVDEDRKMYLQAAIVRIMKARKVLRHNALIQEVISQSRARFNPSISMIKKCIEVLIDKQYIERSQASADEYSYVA
UniProt P08574: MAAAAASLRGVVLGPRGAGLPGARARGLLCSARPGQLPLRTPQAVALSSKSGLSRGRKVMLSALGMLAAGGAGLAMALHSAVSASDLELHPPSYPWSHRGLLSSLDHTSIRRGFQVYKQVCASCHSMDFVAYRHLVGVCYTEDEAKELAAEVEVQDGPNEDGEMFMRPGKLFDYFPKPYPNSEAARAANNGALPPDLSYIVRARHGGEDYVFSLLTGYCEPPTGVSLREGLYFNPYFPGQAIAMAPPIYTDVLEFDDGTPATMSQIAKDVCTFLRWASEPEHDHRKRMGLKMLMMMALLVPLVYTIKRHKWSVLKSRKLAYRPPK
UniProt O00399, whole entry, looked up: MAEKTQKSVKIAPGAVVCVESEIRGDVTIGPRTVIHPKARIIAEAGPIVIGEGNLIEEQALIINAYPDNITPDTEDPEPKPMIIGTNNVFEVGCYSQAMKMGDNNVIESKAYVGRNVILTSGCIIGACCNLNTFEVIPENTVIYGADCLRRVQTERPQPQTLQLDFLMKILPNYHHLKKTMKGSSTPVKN
UniProt O75935, whole entry, looked up: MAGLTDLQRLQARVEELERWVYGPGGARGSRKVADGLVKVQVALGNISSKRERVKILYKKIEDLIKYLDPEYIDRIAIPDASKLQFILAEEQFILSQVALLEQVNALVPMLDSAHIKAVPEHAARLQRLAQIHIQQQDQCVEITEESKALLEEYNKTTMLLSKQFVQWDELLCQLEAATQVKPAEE
UniProt P32929, whole entry, looked up: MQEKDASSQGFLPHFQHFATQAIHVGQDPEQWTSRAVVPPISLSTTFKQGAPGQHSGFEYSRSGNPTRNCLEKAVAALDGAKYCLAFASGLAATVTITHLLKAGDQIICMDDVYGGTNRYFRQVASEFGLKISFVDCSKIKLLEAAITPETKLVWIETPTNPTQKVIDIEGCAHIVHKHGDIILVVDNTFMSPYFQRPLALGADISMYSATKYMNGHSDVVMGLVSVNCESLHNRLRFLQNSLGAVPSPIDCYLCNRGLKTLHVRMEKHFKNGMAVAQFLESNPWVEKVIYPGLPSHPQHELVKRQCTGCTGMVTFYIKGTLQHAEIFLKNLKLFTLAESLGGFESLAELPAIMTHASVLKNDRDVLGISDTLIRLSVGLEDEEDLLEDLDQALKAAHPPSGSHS
UniProt Q12996: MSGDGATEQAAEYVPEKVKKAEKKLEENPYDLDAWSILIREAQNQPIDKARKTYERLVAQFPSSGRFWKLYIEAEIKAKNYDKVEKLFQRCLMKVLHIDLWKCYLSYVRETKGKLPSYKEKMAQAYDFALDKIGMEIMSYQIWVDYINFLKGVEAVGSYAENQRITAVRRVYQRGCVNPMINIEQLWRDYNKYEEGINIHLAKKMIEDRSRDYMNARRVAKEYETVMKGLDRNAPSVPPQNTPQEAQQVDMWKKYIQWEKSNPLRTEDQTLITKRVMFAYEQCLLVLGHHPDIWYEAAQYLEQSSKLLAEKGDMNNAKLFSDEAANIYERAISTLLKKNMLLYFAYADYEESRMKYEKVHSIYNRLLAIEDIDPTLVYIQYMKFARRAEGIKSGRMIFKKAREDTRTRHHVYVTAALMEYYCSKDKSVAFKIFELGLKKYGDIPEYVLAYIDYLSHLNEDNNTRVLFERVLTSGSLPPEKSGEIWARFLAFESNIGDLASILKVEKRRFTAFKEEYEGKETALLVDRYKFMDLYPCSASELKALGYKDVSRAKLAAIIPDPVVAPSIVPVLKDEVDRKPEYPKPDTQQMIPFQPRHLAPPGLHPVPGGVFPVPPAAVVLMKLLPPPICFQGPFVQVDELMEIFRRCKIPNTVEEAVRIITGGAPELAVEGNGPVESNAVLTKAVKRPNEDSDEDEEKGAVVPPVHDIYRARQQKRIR
UniProt Q66K64, whole entry, looked up: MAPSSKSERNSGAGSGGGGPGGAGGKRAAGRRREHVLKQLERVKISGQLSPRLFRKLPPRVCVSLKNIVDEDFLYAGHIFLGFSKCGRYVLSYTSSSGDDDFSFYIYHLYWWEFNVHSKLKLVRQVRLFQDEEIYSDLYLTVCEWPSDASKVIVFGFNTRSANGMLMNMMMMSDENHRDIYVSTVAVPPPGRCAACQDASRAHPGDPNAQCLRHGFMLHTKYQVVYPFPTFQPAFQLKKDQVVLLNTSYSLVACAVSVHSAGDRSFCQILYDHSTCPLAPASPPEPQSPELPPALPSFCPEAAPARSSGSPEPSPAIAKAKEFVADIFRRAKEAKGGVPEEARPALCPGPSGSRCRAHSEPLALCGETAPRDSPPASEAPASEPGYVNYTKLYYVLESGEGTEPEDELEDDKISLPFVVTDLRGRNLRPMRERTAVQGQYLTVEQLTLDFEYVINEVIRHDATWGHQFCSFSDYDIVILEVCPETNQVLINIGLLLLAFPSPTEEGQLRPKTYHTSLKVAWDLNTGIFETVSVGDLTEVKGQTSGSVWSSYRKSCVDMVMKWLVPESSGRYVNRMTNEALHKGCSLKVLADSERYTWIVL
UniProt Q9NPI6: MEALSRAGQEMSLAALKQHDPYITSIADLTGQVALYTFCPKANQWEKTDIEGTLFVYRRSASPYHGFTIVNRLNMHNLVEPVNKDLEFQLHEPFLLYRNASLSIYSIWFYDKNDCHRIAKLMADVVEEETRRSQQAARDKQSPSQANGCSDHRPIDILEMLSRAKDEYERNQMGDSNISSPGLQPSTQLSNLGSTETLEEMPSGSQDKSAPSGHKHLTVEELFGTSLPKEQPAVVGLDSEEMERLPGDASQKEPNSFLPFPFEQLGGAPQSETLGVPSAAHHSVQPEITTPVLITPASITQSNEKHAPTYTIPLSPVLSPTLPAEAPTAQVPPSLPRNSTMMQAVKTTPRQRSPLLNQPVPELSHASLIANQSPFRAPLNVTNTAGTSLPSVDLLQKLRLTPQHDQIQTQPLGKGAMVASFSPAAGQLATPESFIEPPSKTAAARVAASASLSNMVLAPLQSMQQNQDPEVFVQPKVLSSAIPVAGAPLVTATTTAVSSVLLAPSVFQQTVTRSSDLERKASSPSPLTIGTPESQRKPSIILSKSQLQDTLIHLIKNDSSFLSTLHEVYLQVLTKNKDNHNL
UniProt Q13948: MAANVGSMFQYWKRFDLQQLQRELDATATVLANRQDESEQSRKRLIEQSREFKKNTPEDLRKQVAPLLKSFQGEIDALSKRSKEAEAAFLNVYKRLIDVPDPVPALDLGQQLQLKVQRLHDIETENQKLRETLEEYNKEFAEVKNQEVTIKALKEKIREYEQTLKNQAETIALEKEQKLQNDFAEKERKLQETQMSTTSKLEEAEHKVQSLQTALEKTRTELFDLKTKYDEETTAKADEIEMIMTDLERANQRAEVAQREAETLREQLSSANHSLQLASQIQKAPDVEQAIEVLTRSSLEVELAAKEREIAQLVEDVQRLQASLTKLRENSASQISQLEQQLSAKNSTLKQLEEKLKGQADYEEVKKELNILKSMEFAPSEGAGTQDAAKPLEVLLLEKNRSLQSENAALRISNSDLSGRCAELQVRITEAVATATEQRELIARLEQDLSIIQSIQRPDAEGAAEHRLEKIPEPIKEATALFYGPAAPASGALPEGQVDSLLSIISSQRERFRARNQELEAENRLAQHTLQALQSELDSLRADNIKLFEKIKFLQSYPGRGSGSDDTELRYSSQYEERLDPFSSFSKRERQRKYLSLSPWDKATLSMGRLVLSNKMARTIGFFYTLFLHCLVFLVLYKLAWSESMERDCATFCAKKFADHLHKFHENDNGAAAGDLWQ

Experiments:
Experiment in all cases: log2 fold change, soluble protein after heating vs DMSO (PISA); higher = thermal stabilisation; K562 cells, 10 uM, 30 min; active = over 0.2 and 3.5 SD of the protein, either way, in both replicates (recomputed)
IRAK-1-4 Inhibitor I = compound: C1COCCN1CCN2C3=CC=CC=C3N=C2NC(=O)C4=CC(=CC=C4)[N+](=O)[O-] [IRAK-1-4 Inhibitor I]
Method in brief: (§1)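 Soluble protein was defined as the supernatant after 21,000xg for 90 min. It came from K562 cells at 2×10^6 cells/mL given 10 μM compound for 30 min, heated in aliquots for 3 min across 48°C-58°C, pooled, and extracted in PBS with 0.5% NP-40 at 4°C, and was quantified by TMTpro 16plex LC-MS/MS with equalised channel sums. Thermal stability against control samples, from duplicates, is reported as log2 fold change.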

ibrutinib = compound: C=CC(=O)N1CCC[C@@H](n2nc(-c3ccc(Oc4ccccc4)cc3)c3c(N)ncnc32)C1 [ibrutinib]
Method in brief: as §1

[1] = compound: CC(=O)c1cnc2ccc(-c3cc(Cl)c(O)c(Cl)c3)nc2c1N[C@H]1CC[C@H](CN(C)C)CC1
Method in brief: as §1

ralimetinib = compound: CC(C)(C)Cn1c(N)nc2ccc(-c3[nH]c(C(C)(C)C)nc3-c3ccc(F)cc3)nc21 [ralimetinib]
Method in brief: as §1

[2] = compound: CC(C)(O)CC(=O)NCCn1ccc2ncnc(Nc3ccc(Oc4cccc(C(F)(F)F)c4)c(Cl)c3)c21
Method in brief: as §1

[3] = compound: CC(C)C1=C2N=C(C=C(N2N=C1)NCC3=CC=CC=C3)NCCCCCCN
Method in brief: as §1

[4] = compound: CC(C)C[C@@H](C=O)NC(=O)[C@H](CC(C)C)NC(=O)[C@H](CC(C)C)NC(=O)OCc1ccccc1
Method in brief: as §1

pinometostat = compound: CC(C)N(C[C@H]1O[C@@H](n2cnc3c(N)ncnc32)[C@H](O)[C@@H]1O)[C@H]1C[C@@H](CCc2nc3cc(C(C)(C)C)ccc3[nH]2)C1 [pinometostat]
Method in brief: as §1

[5] = compound: CC1=C(C(CC(=O)N1)C2=CC=C(C=C2)C(F)(F)F)C(=O)NC3=C(C=C4C(=C3)C=NN4)F
Method in brief: as §1

[6] = compound: CC1=C(C2=C(C=C1)C(=O)C3=CC=CC=C3N2CCCN)C
Method in brief: as §1

[7] = compound: CC1=C(C=C(C=C1)NC(=O)C2=CC(=CC=C2)C(C)(C)C#N)NC3=CC4=C(C=C3)N=CN(C4=O)C
Method in brief: as §1

[8] = compound: CC1=C(C=C(C=C1)NC(=O)C2=CC(=CC=C2)N(C)C)NC(=O)C3=CC=C(C=C3)O
Method in brief: as §1

[9] = compound: CC1=CC=C(C=C1)SC2=C3C=C(SC3=CN=C2)C(=O)N
Method in brief: as §1

[10] = compound: CC1=NC(=CC=C1)C2=C(N=C(N2)C(C)(C)C)C3=CC4=NC=CN=C4C=C3
Method in brief: as §1

Nexturastat A = compound: CCCCN(Cc1ccc(C(=O)NO)cc1)C(=O)Nc1ccccc1 [Nexturastat A]
Method in brief: as §1

vemurafenib = compound: CCCS(=O)(=O)Nc1ccc(F)c(C(=O)c2c[nH]c3ncc(-c4ccc(Cl)cc4)cc23)c1F [vemurafenib]
Method in brief: as §1

[11] = compound: CCCS(=O)(=O)Nc1ccc(F)c(C(=O)c2c[nH]c3ncc(Cl)cc23)c1F
Method in brief: as §1

[12] = compound: CCCc1cc(C)[nH]c(=O)c1CNC(=O)c1cc(-c2ccnc(N3CCN(C)CC3)c2)cc2c1cnn2C(C)C
Method in brief: as §1

givinostat = compound: CCN(CC)Cc1ccc2cc(COC(=O)Nc3ccc(C(=O)NO)cc3)ccc2c1 [givinostat]
Method in brief: as §1

barasertib = compound: CCN(CCCOc1ccc2c(Nc3cc(CC(=O)Nc4cccc(F)c4)[nH]n3)ncnc2c1)CCOP(=O)(O)O [barasertib]
Method in brief: as §1

Measured: log2 fold change

CWC15 (UniProt Q9P013)
inactive: IRAK-1-4 Inhibitor I 0.044 | ibrutinib 0.058 | [1] 0.135 | ralimetinib -0.112 | [2] 0.059 | [3] 0.095 | [4] 0.059 | pinometostat -0.022 | [5] 0.022 | [6] 0.044 | [7] -0.045 | [8] 0.024 | [9] -0.031 | [10] -0.017 | Nexturastat A -0.03 | vemurafenib -0.045 | [11] -0.111 | [12] -0.072 | givinostat -0.004 | barasertib -0.016

CSTB (UniProt P04080)
inactive: IRAK-1-4 Inhibitor I 0.066 | ibrutinib 0.008 | [1] -0.041 | ralimetinib -0.079 | [2] -0.09 | [3] 0.069 | [4] -0.009 | pinometostat 0.001 | [5] -0.006 | [6] -0.022 | [7] 0.023 | [8] -0.086 | [9] 0.008 | [10] -0.023 | Nexturastat A -0.019 | vemurafenib -0.106 | [11] 0.008 | [12] -0.216 | givinostat 0.002 | barasertib -0.032

DCTN2 isoform 2 (UniProt Q13561)
inactive: IRAK-1-4 Inhibitor I -0.01 | ibrutinib -0.041 | [1] 0.019 | ralimetinib 0.044 | [2] -0.019 | [3] -0.024 | [4] -0.017 | pinometostat -0.024 | [5] -0.021 | [6] -0.007 | [7] 0.036 | [8] -0.055 | [9] 0.029 | [10] 0.012 | Nexturastat A -0.029 | vemurafenib 0.053 | [11] 0.043 | [12] 0.015 | givinostat 0.054 | barasertib 0.023

CXorf56 (UniProt Q9H5V9)
inactive: IRAK-1-4 Inhibitor I -0.026 | ibrutinib -0.063 | [1] -0.026 | ralimetinib 0.03 | [2] 0.028 | [3] 0.065 | [4] 0.045 | pinometostat -0.023 | [5] -0.024 | [6] 0.087 | [7] 0.002 | [8] -0.034 | [9] 0.009 | [10] -0.006 | Nexturastat A 0.002 | vemurafenib -0.015 | [11] -0.02 | [12] 0.015 | givinostat 0.048 | barasertib 0.028

2 neighbouring entries already listed, quoted:
CSTB (UniProt P04080)
inactive: IRAK-1-4 Inhibitor I 0.066 | ibrutinib 0.008 | [1] -0.041 | ralimetinib -0.079 | [2] -0.09 | [3] 0.069 | [4] -0.009 | pinometostat 0.001 | [5] -0.006 | [6] -0.022 | [7] 0.023 | [8] -0.086 | [9] 0.008 | [10] -0.023 | Nexturastat A -0.019 | vemurafenib -0.106 | [11] 0.008 | [12] -0.216 | givinostat 0.002 | barasertib -0.032

DCTN2 isoform 2 (UniProt Q13561)
inactive: IRAK-1-4 Inhibitor I -0.01 | ibrutinib -0.041 | [1] 0.019 | ralimetinib 0.044 | [2] -0.019 | [3] -0.024 | [4] -0.017 | pinometostat -0.024 | [5] -0.021 | [6] -0.007 | [7] 0.036 | [8] -0.055 | [9] 0.029 | [10] 0.012 | Nexturastat A -0.029 | vemurafenib 0.053 | [11] 0.043 | [12] 0.015 | givinostat 0.054 | barasertib 0.023

(listing goes on)

CUL2 isoform 2 (UniProt Q13617)
inactive: IRAK-1-4 Inhibitor I 0.061 | ibrutinib 0.011 | [1] 0.007 | ralimetinib -0.013 | [2] -0.055 | [3] -0.011 | [4] -0.022 | pinometostat -0.023 | [5] -0.019 | [6] 0.053 | [7] 0.006 | [8] -0.001 | [9] 0.064 | [10] 0.058 | Nexturastat A -0.048 | vemurafenib 0.011 | [11] 0.056 | [12] -0.051 | givinostat -0.053 | barasertib -0.013

CYC1 (UniProt P08574)
inactive: IRAK-1-4 Inhibitor I 0.015 | ibrutinib 0.041 | [1] -0.029 | ralimetinib -0.038 | [2] 0.009 | [3] 0.008 | [4] -0.01 | pinometostat -0.057 | [5] 0.003 | [6] 0.043 | [7] 0 | [8] -0.021 | [9] 0.049 | [10] 0.013 | Nexturastat A -0.087 | vemurafenib -0.009 | [11] 0.03 | [12] 0.058 | givinostat -0.004 | barasertib -0.033

DCTN6 (UniProt O00399)
inactive: IRAK-1-4 Inhibitor I 0.027 | ibrutinib 0.015 | [1] 0.007 | ralimetinib 0.068 | [2] 0.046 | [3] 0.022 | [4] -0.058 | pinometostat -0.052 | [5] 0.001 | [6] 0.023 | [7] -0.068 | [8] -0.098 | [9] -0.03 | [10] 0.025 | Nexturastat A 0.012 | vemurafenib -0.02 | [11] 0.028 | [12] -0.039 | givinostat 0.008 | barasertib 0.015

DCTN3 (UniProt O75935)
inactive: IRAK-1-4 Inhibitor I -0.082 | ibrutinib -0.042 | [1] 0.002 | ralimetinib 0.018 | [2] -0.049 | [3] -0.035 | [4] 0.027 | pinometostat -0.114 | [5] -0.024 | [6] 0.056 | [7] 0.073 | [8] -0.04 | [9] 0 | [10] 0.056 | Nexturastat A -0.029 | vemurafenib 0.061 | [11] 0.025 | [12] 0.012 | givinostat 0.027 | barasertib 0.066

CTH (UniProt P32929)
inactive: IRAK-1-4 Inhibitor I 0.028 | ibrutinib 0.009 | [1] 0.05 | ralimetinib 0.006 | [2] -0.017 | [3] 0.051 | [4] -0.069 | pinometostat -0.049 | [5] 0.048 | [6] -0.031 | [7] 0.039 | [8] -0.011 | [9] 0.056 | [10] 0.018 | Nexturastat A -0.046 | vemurafenib 0.007 | [11] 0.019 | [12] -0.05 | givinostat -0.023 | barasertib -0.033

CTBP2 isoform 2 (UniProt P56545)
inactive: IRAK-1-4 Inhibitor I -0.02 | ibrutinib 0.002 | [1] -0.072 | ralimetinib -0.091 | [2] 0.014 | [3] 0.035 | [4] -0.006 | pinometostat -0.055 | [5] 0.024 | [6] 0.044 | [7] -0.016 | [8] 0.023 | [9] -0.006 | [10] 0.06 | Nexturastat A -0.084 | vemurafenib -0.013 | [11] -0.039 | [12] 0.001 | givinostat 0.027 | barasertib 0.009

CYB5R2 (UniProt Q6BCY4)
inactive: IRAK-1-4 Inhibitor I -0.009 | ibrutinib -0.009 | [1] 0.005 | ralimetinib -0.027 | [2] 0.046 | [3] 0.089 | [4] 0.015 | pinometostat -0.031 | [5] 0.004 | [6] 0.014 | [7] -0.036 | [8] 0.038 | [9] -0.021 | [10] -0.003 | Nexturastat A -0.049 | vemurafenib -0.008 | [11] -0.06 | [12] -0.004 | givinostat -0.019 | barasertib 0

CTSB (UniProt P07858)
inactive: IRAK-1-4 Inhibitor I -0.009 | ibrutinib 0.032 | [1] 0.013 | ralimetinib -0.044 | [2] 0.011 | [4] 0.037 | pinometostat -0.031 | [6] -0.053 | [7] -0.035 | [8] -0.069 | [9] 0.022 | [10] 0.029 | Nexturastat A -0.059 | vemurafenib -0.041 | [11] -0.008 | [12] -0.025 | givinostat -0.007 | barasertib 0.015
active: [3] -0.426

CSTF3 (UniProt Q12996)
inactive: IRAK-1-4 Inhibitor I 0.087 | ibrutinib 0 | [1] 0.019 | ralimetinib -0.052 | [2] -0.026 | [3] 0.132 | [4] -0.012 | pinometostat 0.021 | [7] -0.038 | [8] 0.014 | [9] -0.005 | [10] 0.006 | Nexturastat A -0.072 | vemurafenib -0.005 | [11] -0.008 | [12] -0.029 | givinostat -0.05 | barasertib 0.007
active: [6] 0.262

DCAF15 (UniProt Q66K64)
inactive: IRAK-1-4 Inhibitor I 0.011 | ibrutinib -0.065 | [1] 0.07 | ralimetinib -0.049 | [2] 0.007 | [3] 0.089 | [4] 0.117 | pinometostat 0.033 | [5] 0.027 | [6] 0.085 | [7] -0.045 | [8] 0.034 | [9] 0.059 | [10] 0.023 | Nexturastat A 0.069 | vemurafenib 0.114 | [11] 0.06 | [12] -0.031 | givinostat 0.02 | barasertib 0.041

DCP1A (UniProt Q9NPI6)
inactive: IRAK-1-4 Inhibitor I -0.113 | ibrutinib -0.009 | [1] -0.157 | ralimetinib 0.145 | [2] 0.01 | [3] -0.103 | [4] 0.044 | pinometostat 0.082 | [5] 0.027 | [6] -0.004 | [7] 0.083 | [8] -0.001 | [9] -0.06 | [10] -0.004 | Nexturastat A -0.031 | vemurafenib 0.132 | [11] -0.005 | [12] 0.04 | givinostat 0.095 | barasertib 0.106

CUX1 isoform 2 (UniProt Q13948)
inactive: IRAK-1-4 Inhibitor I 0.042 | ibrutinib 0.017 | [1] -0.032 | ralimetinib 0.036 | [2] -0.101 | [3] 0.045 | [4] 0.042 | pinometostat 0.055 | [6] 0.049 | [7] -0.07 | [8] 0.007 | [9] -0.003 | [10] -0.031 | Nexturastat A 0.051 | vemurafenib 0.074 | [11] 0.077 | [12] -0.011 | givinostat -0.049 | barasertib 0.038
